Experimental data: publication doi:10.1101/2020.03.29.015024
Where two headings read alike, the source gives them in different places. No constants are given. Whether binding was seen depends on the method and setting. In cells and extracts the contact can be indirect. Some binding calls cover weakened binding; strength is not graded here. Sequences can lack the tags named with a protein.

Amino acid sequences for entries named in this document (tags omitted).
UniProt Q9Z2C8: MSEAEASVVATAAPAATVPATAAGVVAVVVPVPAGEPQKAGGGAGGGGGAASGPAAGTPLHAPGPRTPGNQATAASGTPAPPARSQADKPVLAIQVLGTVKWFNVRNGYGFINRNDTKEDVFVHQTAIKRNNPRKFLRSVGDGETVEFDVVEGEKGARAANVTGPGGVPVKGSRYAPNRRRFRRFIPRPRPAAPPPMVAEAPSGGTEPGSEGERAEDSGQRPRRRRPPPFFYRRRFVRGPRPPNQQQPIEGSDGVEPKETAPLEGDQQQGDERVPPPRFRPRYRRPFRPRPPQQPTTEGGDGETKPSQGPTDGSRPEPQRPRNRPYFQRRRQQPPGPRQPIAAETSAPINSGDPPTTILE
UniProt P62631: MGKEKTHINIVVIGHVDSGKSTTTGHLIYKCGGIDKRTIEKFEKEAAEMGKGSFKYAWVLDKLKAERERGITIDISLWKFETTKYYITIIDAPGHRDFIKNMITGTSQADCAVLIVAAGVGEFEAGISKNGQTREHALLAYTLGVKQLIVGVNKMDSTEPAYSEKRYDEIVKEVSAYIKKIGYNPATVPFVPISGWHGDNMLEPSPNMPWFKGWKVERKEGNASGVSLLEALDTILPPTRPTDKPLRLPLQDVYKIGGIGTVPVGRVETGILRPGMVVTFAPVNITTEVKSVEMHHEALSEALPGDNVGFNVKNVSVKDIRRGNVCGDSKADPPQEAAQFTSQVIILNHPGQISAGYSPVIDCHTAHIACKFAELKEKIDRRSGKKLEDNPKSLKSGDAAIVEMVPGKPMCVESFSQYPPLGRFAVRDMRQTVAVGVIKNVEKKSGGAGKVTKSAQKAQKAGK
UniProt Q9JMB7: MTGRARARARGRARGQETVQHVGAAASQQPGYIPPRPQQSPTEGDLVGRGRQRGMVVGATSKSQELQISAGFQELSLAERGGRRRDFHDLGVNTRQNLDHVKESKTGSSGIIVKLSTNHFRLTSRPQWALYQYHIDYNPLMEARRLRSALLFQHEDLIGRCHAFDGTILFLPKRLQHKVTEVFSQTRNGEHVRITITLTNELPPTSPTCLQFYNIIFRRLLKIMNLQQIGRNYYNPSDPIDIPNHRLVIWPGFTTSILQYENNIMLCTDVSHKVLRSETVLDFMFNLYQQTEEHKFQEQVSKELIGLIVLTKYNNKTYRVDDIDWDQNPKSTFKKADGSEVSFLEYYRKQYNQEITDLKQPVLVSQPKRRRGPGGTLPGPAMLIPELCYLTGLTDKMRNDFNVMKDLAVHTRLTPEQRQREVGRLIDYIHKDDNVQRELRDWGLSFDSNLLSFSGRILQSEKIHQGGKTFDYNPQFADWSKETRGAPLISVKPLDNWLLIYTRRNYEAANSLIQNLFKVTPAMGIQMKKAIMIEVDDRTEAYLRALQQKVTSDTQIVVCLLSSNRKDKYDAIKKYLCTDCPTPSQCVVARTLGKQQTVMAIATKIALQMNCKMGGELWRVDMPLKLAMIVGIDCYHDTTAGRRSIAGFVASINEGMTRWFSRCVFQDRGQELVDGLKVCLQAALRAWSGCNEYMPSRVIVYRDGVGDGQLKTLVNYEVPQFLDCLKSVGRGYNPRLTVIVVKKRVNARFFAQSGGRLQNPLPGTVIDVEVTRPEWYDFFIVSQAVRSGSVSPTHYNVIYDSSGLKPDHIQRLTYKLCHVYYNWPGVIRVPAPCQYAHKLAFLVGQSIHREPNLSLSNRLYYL

T1: Mitofusin 2 (MFN2) (mouse (endogenous in testis)) (UniProt Q80U63)
T1 sequence: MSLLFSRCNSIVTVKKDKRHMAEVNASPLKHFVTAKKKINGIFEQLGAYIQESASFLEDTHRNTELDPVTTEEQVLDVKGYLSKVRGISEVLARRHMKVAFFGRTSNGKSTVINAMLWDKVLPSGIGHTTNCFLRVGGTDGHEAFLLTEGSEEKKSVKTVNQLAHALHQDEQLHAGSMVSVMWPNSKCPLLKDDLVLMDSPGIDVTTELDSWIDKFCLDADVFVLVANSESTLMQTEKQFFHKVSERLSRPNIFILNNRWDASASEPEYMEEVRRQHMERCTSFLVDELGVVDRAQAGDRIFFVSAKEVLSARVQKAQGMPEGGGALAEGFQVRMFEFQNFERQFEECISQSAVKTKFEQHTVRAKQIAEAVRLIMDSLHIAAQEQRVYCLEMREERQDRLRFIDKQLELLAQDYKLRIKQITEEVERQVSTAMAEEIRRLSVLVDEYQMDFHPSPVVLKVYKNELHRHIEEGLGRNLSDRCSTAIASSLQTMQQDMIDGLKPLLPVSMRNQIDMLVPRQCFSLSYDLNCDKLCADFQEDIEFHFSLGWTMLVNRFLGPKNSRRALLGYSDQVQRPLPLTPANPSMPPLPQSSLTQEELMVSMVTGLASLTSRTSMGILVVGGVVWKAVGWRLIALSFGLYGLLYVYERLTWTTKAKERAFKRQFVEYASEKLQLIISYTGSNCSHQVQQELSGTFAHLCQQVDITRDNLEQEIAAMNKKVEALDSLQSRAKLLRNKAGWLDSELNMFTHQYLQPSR


Experiments:
[1] = molecular target: T1, Mitofusin 2 (MFN2) (mouse (endogenous in testis)); experiment: co-IP
[2] = molecular target: T1, Mitofusin 2 (MFN2) (mouse (endogenous in testis)); experiment: co-IP; remark: listed apart in the source

Row | binding [1] | binding [2] | Molecule
1 | binds |  | MSY2 (from UniProt Q9Z2C8 1-360)
2 | binds |  | eukaryotic elongation factor 1 alpha 2 (eEF1A2) (from UniProt P62631 1-463)
3 | binds |  | MIWI (from UniProt Q9JMB7 1-862)
4 |  | no binding | MAEL (protein, UniProt Q8BVN9 1-434) MPNRRASRNAYYFFVQEKIPELRRRGLPVARVADAIPYCSADWALLREDEKEKYSEMAREWRAAQGKDSGPSEKQKLVSTPLRRPGMLVPKPSISPPDMSNLSIKSDQALLGGIFYFLNIFSHGELPPHCEQRFLPCEIGCVKYSLQEGIMADFHSFIHPGEIPRGFRFHCQAASDSSHKIPISNFEFGHDQATVLQNLYKFIHPNPGNWPPIYCKSDDRARVNWCLKRMERASEIRQDLELLTVEDLVVGIYQQKFLKEPSKTWVRSLLDVAMWDYSSNTRCKWHEENDILFCALAVCKKIAYCISNSLATLFGIQLTGAHVPLQDYEASNSVTPKMVVLDAGRYQKLRVESPGFCHFNSYNQEQRSNTSTGYYPSGVKISGPHSSVRGRGITRLLESISNSSNNIHRFSSCETSLSPYTPQKDGYKPFSSFS
5 |  | binds | Mitofusin 1 (MFN1) (protein, UniProt Q811U4 1-741) MAETVSPLKHFVLAKKAITAIFGQLLEFVTEGSHFVEATYRNPELDRIASEDDLVEIQGYRNKLAVIGEVLSRRHMKVAFFGRTSSGKSSVINAMLWDKVLPSGIGHTTNCFLSVEGTDGDKAYLMTEGSDEKKSVKTVNQLAHALHMDKDLKAGCLVHVFWPKAKCALLRDDLVLVDSPGTDVTTELDIWIDKFCLDADVFVLVANSESTLMNTEKHFFHKVNERLSKPNIFILNNRWDASASEPEYMEDVRRQHMERCLHFLVEELKVVSPSEARNRIFFVSAKEVLNSRKHKAQGMPEGGGALAEGFQARLQEFQNFEQTFEECISQSAVKTKFEQHTIRAKQILDTVKNILDSVNVAAAEKRVYSMEEREDQIDRLDFIRNQMNLLTLDVKKKIKEVTEEVANKVSCAMTDEICRLSVLVDEFCSEFHPTPSVLKVYKSELNKHIEDGMGRNLADRCTNEVNASILQSQQEIIENLKPLLPAGIQNKLHTLIPCKKFDLSYDLNCHKLCSDFQEDIVFRFSLGWSSLVHRFLGSTNAQRVLLGLSEPIFQVPRSLASTPTAPSNPAAPDNAAQEELMITLITGLASLTSRTSMGIIVVGGVIWKTVGWKLISVTLSMYGALYLYERLTWTTRAKERAFKQQFVNYATEKLQMIVSFTSANCSHQVQQEMATTFARLCQQVDVTQKHLEEEIARLSKEIDQLEKIQNNSKLLRNKAVQLESELENFSKQFLHPSSGES
6 |  | binds | GASZ (protein, UniProt Q8VD46 1-475) MAAGTLRGLAVAGGGESSDSEDDGWDIGYLDRSSQKLKRSLPVEEKNETFKKALTTGDISLVKELLDSGINVDSSFRYGWTPLMYAASVANAELVRFLLDRGANASFDKDKLTILISACSARGSEEQVLKCVELLLSRNADPNTACRRLMTPIMYAARDGHTQVVALLVAHGAEVNAQDENGYTALTWAARQGHKNVILKLLELGANKMLQTKDGRTPSEIAKRNKHLEIFNFLSLTLNPLEGKLQQLTKEETICKLLATDSDKEKDHIFSPYTAFGDLEIFLHGLGLEHMTDSLKEKDITLRHLLTMKKDELTKNGIASKDQQKILAALKELEVEEINFGKLPEVTKLEISGDEFLNFLLKLNKQCGHLITAVQNIITELPVNSHKIVLEWASPRNFTSVCEELVSNVEDLNEEVCRLKELIQKMQNERENDPTHIPLVEEVSTWKTRILKRSAVTVCGFGLLLFIGKLTLQRK
7 |  | binds | TDRKH (protein, UniProt Q80VL1 1-560) MSTERTSWTNLSTIQKIALGLGIPASATVAYILYRRYRESREERLTFVGEDDIEIEMRVPQEAVKLIIGRQGANIKQLRKQTGARIDVDTEDVGDERVLLISGFPVQVCKAKAAIHQILTENTPVFEQLSVPQRSVGRIIGRGGETIRSICKASGAKITCDKESEGTLLLSRLIKISGTQKEVAAAKHLILEKVSEDEELRKRIAHSAETRVPRKQPISVRREEVTEPGGAGEAALWKNTNSSMGPATPLEVPLRKGGGDMVVVGPKEGSWEKPNDDSFQNSGAQSSPETSMFEIPSPDFSFHADEYLEVYVSASEHPNHFWIQIIGSRSLQLDKLVSEMTQHYENSLPEDLTVHVGDIVAAPLSTNGSWYRARVLGTLENGNLDLYFVDFGDNGDCALKDLRALRSDFLSLPFQAIECSLARIAPTGEEWEEEALDEFDRLTHCADWKPLVAKISSYVQTGISTWPKIYLYDTSDEKKLDIGLELVRKGYAVELPEDMEENRTVPNMLKDMATETDDSLASILTETKKSPEEMPHTLSCLSLSEAASMSGDDNLEDDLF
8 |  | binds | DDX4 (protein, UniProt Q61496 1-702) MGDEDWEAEILKPHVSSYVPVFEKDKYSSGANGDTFNRTSASSDIGESSKKENTSTTGGFGRGKGFGNRGFLNNKFEEGDSSGFWKESNNDCEDNQTRSRGFSKRGGCQDGNDSEASGPFRRGGRGSFRGCRGGFGLGRPNSESDQDQGTQRGGGLFGSRKPAASDSGNGDTYQSRSGSGRGGYKGLNEEVVTGSGKNSWKSETEGGESSDSQGPKVTYIPPPPPEDEDSIFAHYQTGINFDKYDTILVEVSGHDAPPAILTFEEANLCQTLNNNIAKAGYTKLTPVQKYSIPIVLAGRDLMACAQTGSGKTAAFLLPILAHMMRDGITASRFKELQEPECIIVAPTRELINQIYLEARKFSFGTCVRAVVIYGGTQFGHSVRQIVQGCNILCATPGRLMDIIGKEKIGLKQVKYLVLDEADRMLDMGFGPEMKKLISCPGMPSKEQRQTLLFSATFPEEIQRLAGDFLKSSYLFVAVGQVGGACRDVQQTILQVGQYSKREKLVEILRNIGDERTMVFVETKKKADFIATFLCQEKISTTSIHGDREQREREQALGDFRCGKCPVLVATSVAARGLDIENVQHVINFDLPSTIDEYVHRIGRTGRCGNTGRAISFFDTDSDNHLAQPLVKVLSDAQQDVPAWLEEIAFSTYVPPSFSSSTRGGAVFASVDTRKNYQGKHTLNTAGISSSQAPNPVDDESWD
